Some of these results come from one statement about several compounds together.
Tested on: MHV-1
Assay: Viral titer by plaque assay, DBT cells infected with MHV-1
Format: cell-based, murine hepatitis virus
Conditions: DBT cells pre-treated three hours; 893 10 μM, YM201636 400 nM, apilimod 50 nM; plaque assay 48 hours post infection

**Q.** With Cc1cccc(/C=N/Nc2cc(N3CCOCC3)nc(OCCc3ccccn3)n2)c1 [apilimod, reference compound] as the compound, how does the “reduction of viral titers of MHV-1” value read?
**A.** The value was “less than 2 logs”.

— patent US20240066006A1, “Antiviral Compounds and Applications Thereof” (priority 2020, published 2024)
